Test results as given in article PMC7608686, “The interaction of DNA repair factors ASCC2 and ASCC3 is affected by somatic cancer mutations” (Nature Communications, 2020).
These are yes or no findings as the source states them, for the method shown. For part of these data: Binding seen in cells or lysates may run through a third protein. Some entries that bind do so weakly or less than the wild type. Blank lines part the entries; values can stand above or below the binder they belong to.

Columns and labels:
[1] = molecular target: C-terminally flag-tagged full-length ASCC3 (ASCC3^FL-Flag) (human) (UniProt Q8N3C0); assay: co-IP; Flag-tagged ASCC3 or fragments captured from HEK293 Flp-In T-REx lysate on anti-FlagM2 magnetic beads, eluted with 3xFlag peptide; ASCC2 by western blot, quantified relative to ASCC3^FL
[2] = molecular target: ASCC3 helicase region (ASCC3^HR; residues 401-2202) (human) (UniProt Q8N3C0); assay: SEC; analytical SEC of mixtures of ASCC2^FL with ASCC3^NTR or ASCC3^HR; fractions analysed by SDS-PAGE; both purified
ASCC3^42-197 (human) [3] = molecular target: ASCC3^42-197 (human) (UniProt Q8N3C0); assay: SEC; 1 µmol ASCC2^1-434 mixed with 2 µmol ASCC3 fragment in 20 mM HEPES-NaOH, pH 7.5, 100 mM NaCl, 1 mM DTT; 30 min on ice; Superdex 200 3.2/300; fractions by SDS-PAGE; both purified
ASCC3^42-197 (human) [4] = molecular target: ASCC3^42-197 (human) (UniProt Q8N3C0); assay: condition: 10 µM ASCC3 variant in the cell, 100 µM ASCC2 variant in the syringe; ITC; iTC200; ASCC3 variant (10 µM) in the sample cell, ASCC2 variant (100 µM) in the syringe; 20 mM HEPES-NaOH, pH 7.5, 100 mM NaCl; 25 °C; stoichiometry fixed to 1; both purified
[5] = molecular target: T1, ASCC3^1-22 peptide R11C (human) (UniProt Q8N3C0); assay: condition: 10–15 µM peptide in the cell, 200 µM or 400 µM ASCC2^1–434 in the syringe; ITC; iTC200; ASCC3^1-22 peptide (10-15 µM) in the sample cell, ASCC2^1-434 (200 µM or 400 µM) in the syringe; 20 mM HEPES-NaOH, pH 7.5, 100 mM NaCl; 25 °C; stoichiometry fixed to 1; both purified
T1 sequence (peptide, C-terminal amination): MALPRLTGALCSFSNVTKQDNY

[6] = molecular target: T2, ASCC3^1-22 peptide R11H (human) (UniProt Q8N3C0); assay: as above
T2 sequence (peptide, C-terminal amination): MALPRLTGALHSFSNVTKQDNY

binding [1]: binds
B1: ASCC2, endogenous in HEK293 cells (protein, UniProt Q9H1I8 1-757)
chain: MPALPLDQLQITHKDPKTGKLRTSPALHPEQKADRYFVLYKPPPKDNIPALVEEYLERATFVANDLDWLLALPHDKFWCQVIFDETLQKCLDSYLRYVPRKFDEGVASAPEVVDMQKRLHRSVFLTFLRMSTHKESKDHFISPSAFGEILYNNFLFDIPKILDLCVLFGKGNSPLLQKMIGNIFTQQPSYYSDLDETLPTILQVFSNILQHCGLQGDGANTTPQKLEERGRLTPSDMPLLELKDIVLYLCDTCTTLWAFLDIFPLACQTFQKHDFCYRLASFYEAAIPEMESAIKKRRLEDSKLLGDLWQRLSHSRKKLMEIFHIILNQICLLPILESSCDNIQGFIEEFLQIFSSLLQEKRFLRDYDALFPVAEDISLLQQASSVLDETRTAYILQAVESAWEGVDRRKATDAKDPSVIEEPNGEPNGVTVTAEAVSQASSHPENSEEEECMGAAAAVGPAMCGVELDSLISQVKDLLPDLGEGFILACLEYYHYDPEQVINNILEERLAPTLSQLDRNLDREMKPDPTPLLTSRHNVFQNDEFDVFSRDSVDLSRVHKGKSTRKEENTRSLLNDKRAVAAQRQRYEQYSVVVEEVPLQPGESLPYHSVYYEDEYDDTYDGNQVGANDADSDDELISRRPFTIPQVLRTKVPREGQEEDDDDEEDDADEEAPKPDHFVQDPAVLREKAEARRMAFLAKKGYRHDSSTAVAGSPRGHGQSRETTQERRKKEANKATRANHNRRTMADRKRSKGMIPS

binding [2]: no binding
B2: Full-length ASCC2 (ASCC2^FL) (protein, UniProt Q9H1I8 1-757)
chain: MPALPLDQLQITHKDPKTGKLRTSPALHPEQKADRYFVLYKPPPKDNIPALVEEYLERATFVANDLDWLLALPHDKFWCQVIFDETLQKCLDSYLRYVPRKFDEGVASAPEVVDMQKRLHRSVFLTFLRMSTHKESKDHFISPSAFGEILYNNFLFDIPKILDLCVLFGKGNSPLLQKMIGNIFTQQPSYYSDLDETLPTILQVFSNILQHCGLQGDGANTTPQKLEERGRLTPSDMPLLELKDIVLYLCDTCTTLWAFLDIFPLACQTFQKHDFCYRLASFYEAAIPEMESAIKKRRLEDSKLLGDLWQRLSHSRKKLMEIFHIILNQICLLPILESSCDNIQGFIEEFLQIFSSLLQEKRFLRDYDALFPVAEDISLLQQASSVLDETRTAYILQAVESAWEGVDRRKATDAKDPSVIEEPNGEPNGVTVTAEAVSQASSHPENSEEEECMGAAAAVGPAMCGVELDSLISQVKDLLPDLGEGFILACLEYYHYDPEQVINNILEERLAPTLSQLDRNLDREMKPDPTPLLTSRHNVFQNDEFDVFSRDSVDLSRVHKGKSTRKEENTRSLLNDKRAVAAQRQRYEQYSVVVEEVPLQPGESLPYHSVYYEDEYDDTYDGNQVGANDADSDDELISRRPFTIPQVLRTKVPREGQEEDDDDEEDDADEEAPKPDHFVQDPAVLREKAEARRMAFLAKKGYRHDSSTAVAGSPRGHGQSRETTQERRKKEANKATRANHNRRTMADRKRSKGMIPS

binding (ASCC3^42-197 (human) [3]): no binding | binding (ASCC3^42-197 (human) [4]): no binding | binding [5]: no binding | binding [6]: no binding
B3: ASCC2^1-434 (domain or fragment, human, UniProt Q9H1I8 1-434, looked up)
chain: MPALPLDQLQITHKDPKTGKLRTSPALHPEQKADRYFVLYKPPPKDNIPALVEEYLERATFVANDLDWLLALPHDKFWCQVIFDETLQKCLDSYLRYVPRKFDEGVASAPEVVDMQKRLHRSVFLTFLRMSTHKESKDHFISPSAFGEILYNNFLFDIPKILDLCVLFGKGNSPLLQKMIGNIFTQQPSYYSDLDETLPTILQVFSNILQHCGLQGDGANTTPQKLEERGRLTPSDMPLLELKDIVLYLCDTCTTLWAFLDIFPLACQTFQKHDFCYRLASFYEAAIPEMESAIKKRRLEDSKLLGDLWQRLSHSRKKLMEIFHIILNQICLLPILESSCDNIQGFIEEFLQIFSSLLQEKRFLRDYDALFPVAEDISLLQQASSVLDETRTAYILQAVESAWEGVDRRKATDAKDPSVIEEPNGEPNGVTVTA
notes: source: E. coli BL21 (DE3), purified (Ni-NTA, SEC); not shown: His6, N-terminal, cleaved
